# Some results were stated once for a whole list of compounds, not compound by compound.
# Test: Pharm/tox study with Adacel, QS-21 and TiterQuil-1055: body weight
# Conditions: SC days 1 and 15, weighed daily; 50 mcg TiterQuil-1055, 20 mcg QS-21, Adacel 2.5 mcg pertussis toxin
substance,measurement,value
QS-21 [reference compound],weight loss,7-9%
